Data published in paper PMC12138102 (Acta Pharmaceutica Sinica. B, 2025).

Tests used:
BuChE = assay: Reversibility of BuChE inhibition; assay type: biochemical
[1] = AlCl3-induced zebrafish AD model; conditions: in vivo, 3 μg/mL

SMILES: COc1cc2c(cc1OC)C(=O)C(CC1CCN(Cc3ccccc3)CC1)C2 (stereo not shown) [Donepezil]
- BuChE activity after dilution, start of monitoring (BuChE; 0.1 × IC50): 51.3%
- recovery of BuChE activity / reversibility (BuChE; 0.1 × IC50, 120 min): reversible inhibition of BuChE
- BuChE activity after dilution, end of monitoring (BuChE; 0.1 × IC50, over 120 min): 68.2%
- concentration at 48 h [1]: 329 ng/mL
